{"source": "PubChem BioAssay AID248", "about": "(DTP/NCI, 2004)", "test_system": "L1210 leukemia ip in BDF1 mice, survival T/C", "assay": "NCI In Vivo Anticancer Drug Screen. Data for tumor model L1210 Leukemia (intraperitoneal) in B6D2F1 (BDF1) mice", "conditions": "T/C endpoint: median survival time, vehicle: saline, higher T/C = longer survival", "key": {"[1]": {"conditions": "dose: 500.0 mg/kg/injection, schedule: Q07DX003 (ip)"}, "[2]": {"conditions": "dose: 600.0 mg/kg/injection, schedule: Q01DX001 (ip)"}, "[3]": {"conditions": "dose: 800.0 mg/kg/injection, schedule: Q01DX001 (ip)"}}, "note": "The list is a part of this screen's results and no random one: it gathers tests that were run many times, whatever their T/C, doses with no T/C, and many T/C values between a quarter and a half above the control. Further doses and runs are listed elsewhere. T/C is the treated group as % of the vehicle group. Some doses have a count of surviving animals in place of a T/C: the source holds a T/C of zero for them, seemingly a mark for toxic or unscored doses. Survivors were counted at the toxicity check, usually on the fifth day, unless a day is given; later deaths do not show. Schedule codes are those of the source, read here as Q, the interval in days (D) or hours (H), X, the number of doses. Some entries were tested several times; the values are given in rising order. Counts like (3×) give the number of equal values in this list. Some doses without a T/C left all or most animals alive at the check, yet need not have been tolerated: survival well below the control is almost never listed, so the zero probably covers shortened survival too. For survival time, this PubChem deposit counts one and a half times the control or more as active, and values a quarter to a half above the control carry no call in these data; other NCI protocols may use other cut-offs. Some T/C values carry the count of animals alive at the toxicity check (mostly the fifth day); where none is given, no animal had died by that day.", "data": [{"smiles": "O=P1(N(CCCl)CCCl)NCCCO1", "note": "(stereo not given)", "values": [{"measurement": "T/C", "setting": "dose: 300.0 mg/kg/injection, schedule: Q01DX001 (ip), evaluated on day 46", "result": "257 % of control"}, {"measurement": "T/C", "setting": "dose: 300.0 mg/kg/injection, schedule: Q01DX001 (ip), evaluated on day 59", "result": "655 % of control"}, {"measurement": "T/C", "setting": "dose: 300.0 mg/kg/injection, schedule: Q01DX001 (ip), evaluated on day 60", "result": "237 and 666 % of control"}, {"measurement": "T/C", "setting": "dose: 300.0 mg/kg/injection, schedule: Q01DX001 (ip), evaluated on day 62", "result": "272 % of control [7 of 8 alive]"}, {"measurement": "T/C", "setting": "dose: 300.0 mg/kg/injection, schedule: Q01DX001 (ip), evaluated on day 63", "result": "741 % of control"}, {"measurement": "T/C", "setting": "dose: 300.0 mg/kg/injection, schedule: Q01DX001 (ip), evaluated on day 69", "result": "500 % of control"}, {"measurement": "T/C", "setting": "dose: 300.0 mg/kg/injection, schedule: Q01DX001 (ip), evaluated on day 90", "result": "250 % of control"}, {"measurement": "T/C", "setting": "dose: 300.0 mg/kg/injection, schedule: Q07DX003 (ip), evaluated on day 7", "result": "117, 194, 206, 260, 282, 371 % of control"}, {"measurement": "T/C", "setting": "dose: 300.0 mg/kg/injection, schedule: Q07DX003 (ip), evaluated on day 32", "result": "194 and 206 % of control"}, {"measurement": "T/C", "setting": "dose: 300.0 mg/kg/injection, schedule: Q07DX003 (ip), evaluated on day 34", "result": "117 % of control"}, {"measurement": "T/C", "setting": "dose: 300.0 mg/kg/injection, schedule: Q07DX003 (ip), evaluated on day 46", "result": "252 % of control"}, {"measurement": "T/C", "setting": "dose: 300.0 mg/kg/injection, schedule: Q07DX003 (ip), evaluated on day 63", "result": "282 and 371 % of control"}, {"measurement": "T/C", "setting": "dose: 300.0 mg/kg/injection, schedule: Q07DX004 (ip), evaluated on day 7", "result": "180 and 217 % of control"}, {"measurement": "T/C", "setting": "dose: 300.0 mg/kg/injection, schedule: Q07DX004 (ip), evaluated on day 60", "result": "177 and 216 % of control"}, {"measurement": "T/C", "setting": "dose: 400.0 mg/kg/injection, schedule: Q01DX001 (ip), evaluated on day 7", "result": "48, 80, 83, 91 (2×), 114, 127, 154 (2×), 200, 224, 233, 255, 257 % of control"}, {"measurement": "T/C", "setting": "dose: 400.0 mg/kg/injection, schedule: Q01DX001 (ip), evaluated on day 26", "result": "114 % of control [9 of 10 alive]"}, {"measurement": "T/C", "setting": "dose: 400.0 mg/kg/injection, schedule: Q01DX001 (ip), evaluated on day 30", "result": "337 % of control"}, {"measurement": "T/C", "setting": "dose: 400.0 mg/kg/injection, schedule: Q01DX001 (ip), evaluated on day 35", "result": "91 % of control [6 of 8 alive]"}, {"measurement": "T/C", "setting": "dose: 400.0 mg/kg/injection, schedule: Q01DX001 (ip), evaluated on day 43", "result": "195 % of control"}, {"measurement": "T/C", "setting": "dose: 400.0 mg/kg/injection, schedule: Q01DX001 (ip), evaluated on day 44", "result": "180 % of control [7 of 8 alive]"}, {"measurement": "T/C", "setting": "dose: 400.0 mg/kg/injection, schedule: Q01DX001 (ip), evaluated on day 45", "result": "250 % of control"}, {"measurement": "T/C", "setting": "dose: 400.0 mg/kg/injection, schedule: Q01DX001 (ip), evaluated on day 60", "result": "88 % of control [7 of 8 alive]"}, {"measurement": "T/C", "setting": "dose: 400.0 mg/kg/injection, schedule: Q01DX001 (ip), evaluated on day 63", "result": "127 % of control"}, {"measurement": "survivor count", "setting": "dose: 400.0 mg/kg/injection, schedule: Q01DX001 (ip)", "result": "3 of 8, 5 of 8, 6 of 8 (2×), 6 of 6"}, {"measurement": "T/C", "setting": "dose: 400.0 mg/kg/injection, schedule: Q08DX002 (ip), evaluated on day 7", "result": "160, 247, 265 % of control"}, {"measurement": "T/C", "setting": "dose: 400.0 mg/kg/injection, schedule: Q08DX002 (ip), evaluated on day 43", "result": "245 % of control"}, {"measurement": "T/C", "setting": "dose: 400.0 mg/kg/injection, schedule: Q08DX002 (ip), evaluated on day 44", "result": "245 % of control"}, {"measurement": "T/C", "setting": "dose: 400.0 mg/kg/injection, schedule: Q08DX002 (ip), evaluated on day 46", "result": "160 % of control [7 of 8 alive]"}, {"measurement": "T/C", "setting": "dose: 500.0 mg/kg/injection, schedule: Q01DX001 (ip), evaluated on day 5", "result": "28, 77, 240 % of control"}, {"measurement": "T/C", "setting": "dose: 500.0 mg/kg/injection, schedule: Q01DX001 (ip), evaluated on day 7", "result": "63, 83, 90, 125 % of control"}, {"measurement": "T/C", "setting": "dose: 500.0 mg/kg/injection, schedule: Q01DX001 (ip), evaluated on day 60", "result": "237 and 322 % of control"}, {"measurement": "survivor count", "setting": "dose: 500.0 mg/kg/injection, schedule: Q01DX001 (ip)", "result": "0 of 3, 0 of 8 (3×), 2 of 8, 3 of 8, 4 of 8, 5 of 8, 6 of 8"}, {"measurement": "T/C", "setting": "[1]", "result": "77 and 106 % of control"}, {"measurement": "survivor count", "setting": "[1]", "result": "4 of 8 and 5 of 8"}, {"measurement": "T/C", "setting": "[2]", "result": "61, 74, 81 % of control"}, {"measurement": "survivor count", "setting": "[2]", "result": "2 of 8, 3 of 8, 4 of 8"}, {"measurement": "T/C", "setting": "dose: 600.0 mg/kg/injection, schedule: Q07DX003 (ip), evaluated on day 7", "result": "63 and 142 % of control"}, {"measurement": "T/C", "setting": "dose: 600.0 mg/kg/injection, schedule: Q07DX003 (ip), evaluated on day 63", "result": "142 % of control"}, {"measurement": "survivor count", "setting": "dose: 600.0 mg/kg/injection, schedule: Q07DX003 (ip)", "result": "1 of 8"}, {"measurement": "T/C", "setting": "dose: 600.0 mg/kg/injection, schedule: Q08DX002 (ip), evaluated on day 7", "result": "63 and 115 % of control"}, {"measurement": "T/C", "setting": "dose: 600.0 mg/kg/injection, schedule: Q08DX002 (ip), evaluated on day 44", "result": "110 % of control"}, {"measurement": "survivor count", "setting": "dose: 600.0 mg/kg/injection, schedule: Q08DX002 (ip)", "result": "3 of 8"}, {"measurement": "survivor count", "setting": "dose: 600.0 mg/kg/injection, schedule: Q08DX003 (ip)", "result": "1 of 8"}, {"measurement": "T/C", "setting": "[3]", "result": "39, 45 (2×), 63 (2×), 67 % of control"}, {"measurement": "survivor count", "setting": "[3]", "result": "0 of 8 (3×) and 4 of 10"}]}]}
